# Reference: the supplement of paper PMC4604168 (melanoma cell lines)
# The other results are listed elsewhere or left out. Single values are uncertain, as repeats are few or missing.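 Cells were imaged in 1,536-well plates, and nuclei stained with an antibody against cleaved PARP were counted against all DNA-stained nuclei to give the apoptosis fraction. Screening doses were chosen to leave most cells alive, and resting and induced cleaved-PARP levels differ strongly between cell lines.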
# Columns and labels:
# Assay in all cases: cleaved PARP positive nuclei fraction relative to DMSO control; melanoma cells; higher = more apoptosis
# Settings in all cases: library dose: low library concentration; 72 h
# [1] = test system: MZ2-MEL
# [2] = test system: MeWo
# [3] = test system: RPMI7951
# [4] = test system: RVH-421
# [5] = test system: SkMel28
# [6] = test system: SkMel2
# [7] = test system: SkMel30
# [8] = test system: UACC62
# [9] = test system: WM115
# [10] = test system: WM1716
# [11] = test system: WM1745
# [12] = test system: WM3526
# [13] = test system: WM3619
# [14] = test system: WM451Lu
# [15] = test system: SkMel5
# [16] = test system: UACC257
SMILES,cleaved PARP positive nuclei fraction [1] [%],cleaved PARP positive nuclei fraction [2] [%],cleaved PARP positive nuclei fraction [3] [%],cleaved PARP positive nuclei fraction [4] [%],cleaved PARP positive nuclei fraction [5] [%],cleaved PARP positive nuclei fraction [6] [%],cleaved PARP positive nuclei fraction [7] [%],cleaved PARP positive nuclei fraction [8] [%],cleaved PARP positive nuclei fraction [9] [%],cleaved PARP positive nuclei fraction [10] [%],cleaved PARP positive nuclei fraction [11] [%],cleaved PARP positive nuclei fraction [12] [%],cleaved PARP positive nuclei fraction [13] [%],cleaved PARP positive nuclei fraction [14] [%],cleaved PARP positive nuclei fraction [15] [%],cleaved PARP positive nuclei fraction [16] [%]
"O=C(O)c1ccc2c(c1)nc(Nc1cccc(Cl)c1)c1ccncc12 + CC(=O)c1c(C)c2cnc(Nc3ccc(N4CCNCC4)cn3)nc2n(C2CCCC2)c1=O [palbociclib] (first compound 0.4 µM, partner dose 0.04 µM)",80.1,126,92,49.6,100,111,121,147,55.2,173,228,228,106,114,,
"CNC(=O)c1cc(Oc2ccc(NC(=O)Nc3ccc(Cl)c(C(F)(F)F)c3)cc2)ccn1 [sorafenib] + O=C(O)c1ccc(-c2c[nH]c3ncc(-c4ccccc4)cc23)cc1C1CCCC1 [GSK650394] (first compound 0.4 µM, partner dose 0.16 µM)",20.8,107,91.1,97.2,37.1,87.5,64,219,38.5,73.1,84.9,107,86,336,79.7,66.7
"CN1CCN(c2ccc3nc(-c4c(N)c5c(F)cccc5[nH]c4=O)[nH]c3c2)CC1 [Dovitinib] + CO[C@@H]1[C@H](N(C)C(=O)c2ccccc2)C[C@H]2O[C@]1(C)n1c3ccccc3c3c4c(c5c6ccccc6n2c5c31)C(=O)NC4 [Midostaurin] (first compound 0.1 µM, partner dose 0.08 µM)",41.7,162,278,84.6,81.4,74.8,71.1,103,97.5,80.5,105,40.3,80.5,121,19.8,43.1
"Nc1ccn([C@@H]2O[C@H](CO)[C@@H](O)C2(F)F)c(=O)n1 [gemcitabine] + Cc1cc(N2CCOCC2)cc2[nH]c(-c3c(NC[C@@H](O)c4cccc(Cl)c4)cc[nH]c3=O)nc12 [BMS536924] (first compound 0.0004 µM, partner dose 0.2 µM)",156,52.2,42.7,161,113,88.2,228,182,24.6,221,130,33.3,125,82.1,135,189
"O=C(O)c1ccc2c(c1)nc(Nc1cccc(Cl)c1)c1ccncc12 + Cc1nc(Nc2ncc(C(=O)Nc3c(C)cccc3Cl)s2)cc(N2CCN(CCO)CC2)n1 [dasatanib] (first compound 0.4 µM, partner dose 0.004 µM)",177,84.1,65.6,119,85.1,227,53.1,126,171,307,119,80.5,104,74.6,,
"C=C(c1ccc(C(=O)O)cc1)c1cc2c(cc1C)C(C)(C)CCC2(C)C [Bexarotene] + Cn1cc(/C=C2\C(=O)Nc3cccnc32)c2ccccc21 [GW441756] (first compound 2 µM, partner dose 0.4 µM)",106,40,192,133,94.8,50,84.4,82.3,88.9,123,84.4,354,91.4,89.2,189,187
"O=C(O)c1ccc2c(c1)nc(Nc1cccc(Cl)c1)c1ccncc12 + C=CCNC1=C2C[C@@H](C)C[C@H](OC)[C@H](O)[C@@H](C)/C=C(\C)[C@H](OC(N)=O)[C@@H](OC)/C=C\C=C(/C)C(=O)NC(=CC1=O)C2=O [Tanespimycin] (first compound 0.4 µM, partner dose 0.002 µM)",78.5,148,77.9,178,75,111,109,177,185,165,99.6,110,82.7,104,,
"CC(C)C[C@H](NC(=O)[C@H](Cc1ccccc1)NC(=O)c1cnccn1)B(O)O [Bortezomib] + Oc1nc(-c2ccc(C(F)(F)F)cc2)nc2c1CSCC2 [XAV939] (first compound 0.001 µM, partner dose 2 µM)",123,125,241,213,92.3,77,58.9,87,75,354,94.8,150,108,72.6,1020,37.8
"CNC(=O)c1cc(Oc2ccc(NC(=O)Nc3ccc(Cl)c(C(F)(F)F)c3)cc2)ccn1 [sorafenib] + OCCn1cc(-c2cnc3nnn(Cc4ccc5ncccc5c4)c3n2)cn1 [PF04217903] (first compound 0.4 µM, partner dose 1 µM)",146,22.5,140,113,37.1,37.7,54.4,98.2,49,92,111,178,80,155,66.1,32.8
"Nc1ccn([C@@H]2O[C@H](CO)[C@@H](O)C2(F)F)c(=O)n1 [gemcitabine] + COc1ccc(COc2ccc(Cc3cnc(N)nc3N)cc2OC)cc1 [GW2580] (first compound 0.0004 µM, partner dose 1 µM)",77.2,51.9,135,43.6,117,55.2,223,48.3,111,161,113,39.3,156,35.4,73.3,45.1
"CC(C)C[C@H](NC(=O)[C@H](Cc1ccccc1)NC(=O)c1cnccn1)B(O)O [Bortezomib] + N#Cc1c(O)c2c(-c3ccc(-c4ccccc4O)cc3)csc2[nH]c1=O [A769662] (first compound 0.001 µM, partner dose 2 µM)",119,67.6,43.7,769,213,123,45.7,108,51.2,659,154,83.7,307,110,309,118
"Nc1ccn([C@@H]2O[C@H](CO)[C@@H](O)C2(F)F)c(=O)n1 [gemcitabine] + Cc1cc([N+](=O)[O-])ccc1NS(=O)(=O)c1cc(Cl)ccc1Cl [FH535] (first compound 0.0004 µM, partner dose 1 µM)",124,195,146,244,124,31.3,109,120,128,160,132,74.2,360,121,36,223
"Nc1ncn([C@H]2C[C@H](O)[C@@H](CO)O2)c(=O)n1 [decitabine] + O=c1cc(-c2cccc3c2Sc2ccccc2S3)oc(N2CCOCC2)c1 [KU55933] (first compound 0.1 µM, partner dose 1 µM)",54.1,39.6,362,263,146,154,139,204,135,145,79.1,55.2,82.2,232,140,144
"Nc1ncn([C@H]2C[C@H](O)[C@@H](CO)O2)c(=O)n1 [decitabine] + c1cc(-c2cnn3cc(-c4ccc(OCCN5CCCCC5)cc4)cnc23)ccn1 [Dorsomorphin] (first compound 0.1 µM, partner dose 0.4 µM)",70.2,41.5,128,64.2,165,40,311,122,138,50.3,88,81.8,171,46.7,65.2,39.8
"Nc1nc(F)nc2c1ncn2[C@@H]1O[C@H](CO)[C@@H](O)[C@@H]1O [fludarabine] + CC1(C)NC(=O)N(c2ccc([N+](=O)[O-])c(C(F)(F)F)c2)C1=O [nilutamide] (first compound 0.2 µM, partner dose 1 µM)",38.6,935,166,99.3,209,472,398,103,47.1,126,99.8,221,108,232,492,352
"Cn1c(=O)n(-c2ccc(C(C)(C)C#N)cc2)c2c3cc(-c4cnc5ccccc5c4)ccc3ncc21 + C=CCn1c(=O)c2cnc(Nc3ccc(N4CCN(C)CC4)cc3)nc2n1-c1cccc(C(C)(C)O)n1 [MK1775] (first compound 0.004 µM, partner dose 0.02 µM)",174,107,42,74.3,105,73.9,88.9,177,128,247,315,273,126,26.8,52.3,230
"Nc1ccn([C@@H]2O[C@H](CO)[C@@H](O)C2(F)F)c(=O)n1 [gemcitabine] + CC(C)(C)c1cnc(CSc2cnc(NC(=O)C3CCNCC3)s2)o1 [SNS-032] (first compound 0.0004 µM, partner dose 0.01 µM)",92.8,90.4,127,47.8,93.5,98.8,30.4,79,58,61.4,125,53.8,109,58.5,36,119

# Rewritten tab-delimited: entries from further up.
SMILES	cleaved PARP positive nuclei fraction [1] [%]	cleaved PARP positive nuclei fraction [2] [%]	cleaved PARP positive nuclei fraction [3] [%]	cleaved PARP positive nuclei fraction [4] [%]	cleaved PARP positive nuclei fraction [5] [%]	cleaved PARP positive nuclei fraction [6] [%]	cleaved PARP positive nuclei fraction [7] [%]	cleaved PARP positive nuclei fraction [8] [%]	cleaved PARP positive nuclei fraction [9] [%]	cleaved PARP positive nuclei fraction [10] [%]	cleaved PARP positive nuclei fraction [11] [%]	cleaved PARP positive nuclei fraction [12] [%]	cleaved PARP positive nuclei fraction [13] [%]	cleaved PARP positive nuclei fraction [14] [%]	cleaved PARP positive nuclei fraction [15] [%]	cleaved PARP positive nuclei fraction [16] [%]
Nc1ccn([C@@H]2O[C@H](CO)[C@@H](O)C2(F)F)c(=O)n1 [gemcitabine] + COc1ccc(COc2ccc(Cc3cnc(N)nc3N)cc2OC)cc1 [GW2580] (first compound 0.0004 µM, partner dose 1 µM)	77.2	51.9	135	43.6	117	55.2	223	48.3	111	161	113	39.3	156	35.4	73.3	45.1
Cn1c(=O)n(-c2ccc(C(C)(C)C#N)cc2)c2c3cc(-c4cnc5ccccc5c4)ccc3ncc21 + C=CCn1c(=O)c2cnc(Nc3ccc(N4CCN(C)CC4)cc3)nc2n1-c1cccc(C(C)(C)O)n1 [MK1775] (first compound 0.004 µM, partner dose 0.02 µM)	174	107	42	74.3	105	73.9	88.9	177	128	247	315	273	126	26.8	52.3	230
